Assay results: the supplement of paper PMC7646827
Counter-ions that a name gives are not always drawn. Many values rest on one well or one pass, so single values are uncertain.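 All cells are established human bladder cancer lines, one of them grown from a patient-derived xenograft. Viability was read by a luminescent ATP assay as percent inhibition versus vehicle over a seven-point dilution series; the paper calls scores above 59 very active, 30–59 active, 21–29 semi-active, 9–20 low active and below 9 inactive.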

How the values were obtained:
Assay in all cases: drug sensitivity score DSS3 (score 0-100); higher = more sensitive; extreme values may be limits of the assay
Details in all cases: culture: 3D, ultra-low attachment; treatment time: 5 days
T-24 = system: T-24
5637 = system: 5637
UM-UC-18 = system: UM-UC-18
UM-UC-14 = system: UM-UC-14
UM-UC-6 = system: UM-UC-6
SCaBER = system: SCaBER
UM-UC-1 = system: UM-UC-1
J82 = system: J82
TCCSUP = system: TCCSUP
BC8149 = system: BC8149
UM-UC-9 = system: UM-UC-9
UM-UC-15 = system: UM-UC-15
SW780 = system: SW780
UM-UC-17 = system: UM-UC-17
UM-UC-3 = system: UM-UC-3
UM-UC-5 = system: UM-UC-5
UM-UC-12 = system: UM-UC-12

SMILES | drug sensitivity score DSS3 (T-24) | drug sensitivity score DSS3 5637 | drug sensitivity score DSS3 (UM-UC-18) | drug sensitivity score DSS3 (UM-UC-14) | drug sensitivity score DSS3 (UM-UC-6) | drug sensitivity score DSS3 (SCaBER) | drug sensitivity score DSS3 (UM-UC-1) | drug sensitivity score DSS3 (J82) | drug sensitivity score DSS3 (TCCSUP) | drug sensitivity score DSS3 (BC8149) | drug sensitivity score DSS3 (UM-UC-9) | drug sensitivity score DSS3 (UM-UC-15) | drug sensitivity score DSS3 (SW780) | drug sensitivity score DSS3 (UM-UC-17) | drug sensitivity score DSS3 (UM-UC-3) | drug sensitivity score DSS3 (UM-UC-5) | drug sensitivity score DSS3 (UM-UC-12)
Cn1cc(C2=C(c3cn(C4CCN(Cc5ccccn5)CC4)c4ccccc34)C(=O)NC2=O)c2ccccc21 (max dose 10000 nM) | 0 | 2.88 | 0.454 | 0.871 | 0 | 1.07 | 0 | 3.79 | 2.45 | 3.33 | 0.152 | 0 | 1.86 | 1.32 | 0 | 0 | 0.228
CC(=O)O[C@H]1C(=O)[C@@]2(C)[C@H]([C@H](OC(=O)c3ccccc3)[C@]3(O)C[C@H](OC(=O)[C@H](O)[C@@H](NC(=O)c4ccccc4)c4ccccc4)C(C)=C1C3(C)C)[C@]1(OC(C)=O)CO[C@@H]1C[C@@H]2O (max dose 10000 nM) | 0 | 69.6 | 56.6 | 55.1 | 50.7 | 36.7 | 55.4 | 8.42 | 68.9 | 47.3 | 11.8 | 0 | 47.9 | 68.8 | 30.5 | 5.45e-05 | 29.8
c1ccc2c(CCNc3ccc(Nc4ccncc4)cc3)c[nH]c2c1 (max dose 10000 nM) | 0.161 | 0 | 0 | 0 | 0 | 0 | 0.434 | 0 | 3.76 | 7.69 | 0 | 1.41 | 0 | 0 | 0 | 0 | 0
CCCCc1nc2cc(/C=C/C(=O)NO)ccc2n1CCN(CC)CC [Pracinostat (SB939)] (max dose 10000 nM) | 6.5 | 12.2 | 11.6 | 11.9 | 9.32 | 3.71 | 4.23 | 2.77 | 24.6 | 18 | 4.02 | 25 | 3.15 | 10.3 | 6.81 | 3.73 | 8.29
Cc1cc(O)c2c(c1)C(=O)c1cccc(O)c1C2=O [Chrysophanic Acid] (max dose 10000 nM) | 0 | 3.29 | 5.27 | 0 | 0 | 0.0731 | 0.582 | 0 | 3.36 | 0 | 0 | 0 | 0 | 0 | 2.15 | 0 | 0.703
COc1c(-c2ccc3cc(NS(C)(=O)=O)ccc3c2)cc(-n2ccc(=O)[nH]c2=O)cc1C(C)(C)C [Dasabuvir(ABT-333)] (max dose 10000 nM) | 0 | 0 | 0 | 0 | 0 | 0 | 0 | 0 | 0 | 0 | 0 | 0.19 | 0 | 0 | 0.0132 | 0 | 0
O=C(NNS(=O)(=O)c1ccccc1F)c1cc(F)cc(-c2ccccn2)c1 [WM-1119] (max dose 10000 nM) | 0 | 0.304 | 0 | 0 | 5 | 0 | 0.34 | 0 | 0.523 | 0 | 0 | 24.7 | 0 | 0 | 0 | 0 | 0
C#Cc1cccc(Nc2ncnc3cc(OCCOC)c(OCCOC)cc23)c1 [Erlotinib, Erlotinib HCl (OSI-744)] (max dose 10000 nM) | 1.17 | 15.4 | 4.56 | 3.37 | 8.11 | 5.13 | 0.144 | 0 | 9.9 | 0 | 0.788 | 0 | 0.185 | 4.75 | 4.09 | 0 | 1.41
NC(=O)c1cccc2cn(-c3ccc([C@@H]4CCCNC4)cc3)nc12 [Niraparib] (max dose 15400 nM) | 0.0499 | 3.48 | 0 | 1.14 | 1.93 | 1.49 | 3.42 | 0 | 5.96 | 7.71 | 0 | 0 | 4.78 | 0.613 | 1.56 | 0 | 2.22
C[C@H](NCc1ccc(OCc2cccc(F)c2)cc1)C(N)=O [Safinamide Mesylate] (max dose 10000 nM) | 0 | 0 | 0 | 0 | 0 | 0 | 0 | 0 | 0 | 0 | 0 | 0 | 0 | 0 | 0 | 0 | 0
CON [Methoxyamine hydrochloride] (max dose 10000 nM) | 18.6 | 11.9 | 7.19 | 3.36 | 4.57 | 10.2 | 7.85 | 0 | 7.65 | 8.52 | 5.27 | 9.81 | 0 | 5.78 | 6.65 | 8.29 | 0
C[C@]12CCC(=O)C(O)=C1CC[C@@H]1[C@@H]2CC[C@]2(C)C(=O)CC[C@@H]12 [Formestane] (max dose 10000 nM) | 0 | 0 | 0.333 | 0.77 | 0 | 0 | 0 | 0 | 2.38 | 1.55 | 0 | 0 | 0 | 0.112 | 0.689 | 0 | 0
O=C(Nc1ccccc1-c1cn2c(CN3CCNCC3)csc2n1)c1cnc2ccccc2n1 [SRT1720] (max dose 10000 nM) | 1.07 | 2.66 | 7.09 | 1.83 | 1.44 | 23 | 9.1 | 0 | 30.5 | 19 | 0.156 | 0 | 0.0894 | 0 | 0 | 0.456 | 1.83
CNC(=O)c1c(C)oc2cc(Oc3ncnc4cc(OC)c(OC)cc34)ccc12 [Fruquintinib] (max dose 10000 nM) | 0 | 1.27 | 2.82 | 2.25 | 0.225 | 0 | 1.22 | 0 | 1.35 | 1.12 | 0.00804 | 0 | 0 | 0 | 0.767 | 0 | 1.05
CC(C)CC(=O)Nc1n[nH]c2c1CN(C(=O)C1CCN(C)CC1)C2(C)C (max dose 10000 nM) | 1.37 | 8.14 | 6.75 | 1.23 | 11 | 2.12 | 0.186 | 0 | 3.29 | 0.326 | 0.645 | 2.95 | 1.08 | 3.19 | 0 | 0.113 | 1.08
CC(=O)Nc1cccc2c1c(Sc1ccc(Cl)cc1)c(C)n2CC(=O)O [AZD1981] (max dose 10000 nM) | 0 | 0 | 0 | 0.0545 | 0 | 0 | 0 | 0 | 0.146 | 0.178 | 0 | 0 | 0 | 0 | 0 | 0 | 0
Nc1nc2[nH]cc(CCc3ccc(C(=O)N[C@@H](CCC(=O)O)C(=O)O)cc3)c2c(=O)[nH]1 [Pemetrexed] (max dose 10000 nM) | 0 | 12.1 | 23.1 | 5.7 | 0 | 0 | 5.38 | 0 | 15.5 | 0 | 1.04 | 0 | 0 | 26.5 | 0 | 0 | 0
O=C(O)C(=O)O.[NH-][C@@H]1CCCC[C@H]1[NH-].[Pt+2] [Oxaliplatin] (max dose 10000 nM) | 0 | 0 | 0.884 | 0 | 0 | 4.73 | 0 | 0 | 1.87 | 2.19 | 0 | 0 | 0 | 0 | 0.68 | 0 | 0
CCN1CCN(c2ccc(Nc3cc(N(C)C(=O)Nc4c(Cl)c(OC)cc(OC)c4Cl)ncn3)cc2)CC1 [BGJ398 (NVP-BGJ398)] (max dose 1000 nM) | 0 | 0.185 | 0.155 | 0 | 0.486 | 0 | 3.22 | 0 | 3.83 | 3.93 | 0 | 4.09 | 0 | 0.0783 | 0 | 0.899 | 0
c1c2c(cc3c1OCO3)-c1cc3ccc4c(c3c[n+]1CC2)OCO4 [Coptisine chloride] (max dose 10000 nM) | 0 | 0 | 0 | 0 | 0 | 0 | 0.255 | 0 | 0 | 0 | 0 | 0 | 0 | 0 | 0 | 0 | 0
CCCCOc1nc(N)c2c(n1)N(Cc1cccc(CN3CCCC3)c1)CC(=O)N2 [GS-9620] (max dose 10000 nM) | 0 | 0 | 0 | 0.000305 | 0 | 0 | 0 | 0 | 0 | 0 | 0 | 0 | 0 | 0 | 0 | 0 | 0
CNC(=O)c1cnn(-c2nc(N)c3ncn([C@@H]4O[C@H](CO)[C@@H](O)[C@H]4O)c3n2)c1 [Regadenoson] (max dose 10000 nM) | 0 | 0 | 0 | 0 | 0 | 0 | 0 | 0 | 0 | 0 | 0 | 17.4 | 0 | 0 | 0 | 0 | 0
CN(Cc1cnc2nc(N)nc(N)c2n1)c1ccc(C(=O)N[C@@H](CCC(=O)O)C(=O)O)cc1 [Methotrexate] (max dose 10000 nM) | 0 | 47 | 22.9 | 60.1 | 16.4 | 1.68 | 37 | 0.269 | 41.2 | 3.94 | 31.6 | 0 | 28.5 | 61.3 | 22.7 | 0 | 0
COc1cc(Nc2c(C#N)cnc3cc(OCCCN4CCN(C)CC4)c(OC)cc23)c(Cl)cc1Cl [Bosutinib, Bosutinib (SKI-606)] (max dose 10000 nM) | 3.2 | 3.13 | 0.593 | 0.653 | 0 | 3.91 | 0 | 0 | 3.06 | 0 | 0 | 0 | 0 | 0.195 | 1.04 | 0 | 21.3

In another format: six of the compounds above.
SMILES	drug sensitivity score DSS3 (T-24)	drug sensitivity score DSS3 5637	drug sensitivity score DSS3 (UM-UC-18)	drug sensitivity score DSS3 (UM-UC-14)	drug sensitivity score DSS3 (UM-UC-6)	drug sensitivity score DSS3 (SCaBER)	drug sensitivity score DSS3 (UM-UC-1)	drug sensitivity score DSS3 (J82)	drug sensitivity score DSS3 (TCCSUP)	drug sensitivity score DSS3 (BC8149)	drug sensitivity score DSS3 (UM-UC-9)	drug sensitivity score DSS3 (UM-UC-15)	drug sensitivity score DSS3 (SW780)	drug sensitivity score DSS3 (UM-UC-17)	drug sensitivity score DSS3 (UM-UC-3)	drug sensitivity score DSS3 (UM-UC-5)	drug sensitivity score DSS3 (UM-UC-12)
COc1c(-c2ccc3cc(NS(C)(=O)=O)ccc3c2)cc(-n2ccc(=O)[nH]c2=O)cc1C(C)(C)C [Dasabuvir(ABT-333)] (max dose 10000 nM)	0	0	0	0	0	0	0	0	0	0	0	0.19	0	0	0.0132	0	0
CON [Methoxyamine hydrochloride] (max dose 10000 nM)	18.6	11.9	7.19	3.36	4.57	10.2	7.85	0	7.65	8.52	5.27	9.81	0	5.78	6.65	8.29	0
O=C(Nc1ccccc1-c1cn2c(CN3CCNCC3)csc2n1)c1cnc2ccccc2n1 [SRT1720] (max dose 10000 nM)	1.07	2.66	7.09	1.83	1.44	23	9.1	0	30.5	19	0.156	0	0.0894	0	0	0.456	1.83
Nc1nc2[nH]cc(CCc3ccc(C(=O)N[C@@H](CCC(=O)O)C(=O)O)cc3)c2c(=O)[nH]1 [Pemetrexed] (max dose 10000 nM)	0	12.1	23.1	5.7	0	0	5.38	0	15.5	0	1.04	0	0	26.5	0	0	0
CNC(=O)c1cnn(-c2nc(N)c3ncn([C@@H]4O[C@H](CO)[C@@H](O)[C@H]4O)c3n2)c1 [Regadenoson] (max dose 10000 nM)	0	0	0	0	0	0	0	0	0	0	0	17.4	0	0	0	0	0
CN(Cc1cnc2nc(N)nc(N)c2n1)c1ccc(C(=O)N[C@@H](CCC(=O)O)C(=O)O)cc1 [Methotrexate] (max dose 10000 nM)	0	47	22.9	60.1	16.4	1.68	37	0.269	41.2	3.94	31.6	0	28.5	61.3	22.7	0	0
